Results on ten sequences are retold here after paper PMC12221297.

Protein sequences, listed by entry. Tags and fused reporters are not part of them. Lines headed by an entry give the natural chain unless they say otherwise; changes in a name come on top.
UniProt Q61990, whole entry: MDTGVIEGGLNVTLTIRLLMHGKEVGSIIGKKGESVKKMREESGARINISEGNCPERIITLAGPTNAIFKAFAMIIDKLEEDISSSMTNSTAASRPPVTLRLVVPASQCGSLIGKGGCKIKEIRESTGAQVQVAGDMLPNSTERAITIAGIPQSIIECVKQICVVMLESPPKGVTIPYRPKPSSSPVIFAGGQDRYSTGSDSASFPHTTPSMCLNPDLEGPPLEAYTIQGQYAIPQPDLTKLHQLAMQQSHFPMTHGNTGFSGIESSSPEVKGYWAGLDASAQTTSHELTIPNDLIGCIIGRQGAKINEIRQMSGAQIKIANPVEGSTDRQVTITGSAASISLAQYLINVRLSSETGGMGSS
UniProt P16858: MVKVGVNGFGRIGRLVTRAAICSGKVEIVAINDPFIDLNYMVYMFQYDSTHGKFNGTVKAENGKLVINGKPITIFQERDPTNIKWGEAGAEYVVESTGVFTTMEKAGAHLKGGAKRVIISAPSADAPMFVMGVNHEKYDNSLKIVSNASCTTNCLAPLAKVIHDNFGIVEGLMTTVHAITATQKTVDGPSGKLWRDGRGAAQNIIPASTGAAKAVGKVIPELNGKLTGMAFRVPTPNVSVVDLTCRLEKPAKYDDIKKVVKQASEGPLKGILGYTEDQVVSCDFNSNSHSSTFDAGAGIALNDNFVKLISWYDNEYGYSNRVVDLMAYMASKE

For at least one entry, the source does not settle the construct or the ends of the probe. For some assays here: Weaker means in comparison with the reference protein, sequence or condition of that experiment. At least one verdict rests on a figure or table, not on a statement of the authors. For some assays here: Where cells or extracts were used, other partners may take part. For some assays here: No signal at the amounts used counts as a negative. For some assays here: Protein sequences can lack the tags named with them.

In series [1] the target is T1, SYNCRIP (hnRNPQ) endogenous (Mus musculus (hepatocytes)) (UniProt Q7TMK9).
T1 sequence (looked up, limits assumed): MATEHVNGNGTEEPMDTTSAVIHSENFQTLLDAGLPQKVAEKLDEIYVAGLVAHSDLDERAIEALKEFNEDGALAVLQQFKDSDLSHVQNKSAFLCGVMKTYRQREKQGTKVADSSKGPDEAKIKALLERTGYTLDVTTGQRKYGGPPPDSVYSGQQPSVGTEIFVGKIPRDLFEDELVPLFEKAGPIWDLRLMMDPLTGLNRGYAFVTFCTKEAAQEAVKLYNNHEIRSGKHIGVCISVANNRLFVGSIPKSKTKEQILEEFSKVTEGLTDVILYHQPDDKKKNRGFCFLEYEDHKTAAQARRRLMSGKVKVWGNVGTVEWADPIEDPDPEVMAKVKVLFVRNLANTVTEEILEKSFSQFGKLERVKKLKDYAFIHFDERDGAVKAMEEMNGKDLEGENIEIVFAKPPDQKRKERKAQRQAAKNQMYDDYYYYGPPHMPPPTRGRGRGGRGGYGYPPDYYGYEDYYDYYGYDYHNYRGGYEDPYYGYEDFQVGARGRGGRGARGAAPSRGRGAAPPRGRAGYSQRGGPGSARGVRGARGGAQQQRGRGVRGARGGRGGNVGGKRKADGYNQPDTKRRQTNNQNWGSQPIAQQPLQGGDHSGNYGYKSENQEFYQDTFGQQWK
In words: pull-down + immunoblot. The conditions noted are these: pull-down: streptavidin beads blocked with 1 mg/mL yeast tRNA, 90 min 4 C, lysis buffer washes; 4 ug recombinant PCBP2; protein in an extract; label: 5' biotin.

Series [2] has as its target PCBP2 endogenous (Mus musculus (hepatocytes)) (UniProt Q61990). In words: pull-down + immunoblot. The note with it: pull-down: streptavidin beads blocked with 1 mg/mL yeast tRNA, 90 min 4 C, lysis buffer washes; 4 ug recombinant PCBP2; protein in an extract; label: 5' biotin.
Series [3] has as its target PCBP2 recombinant (Origene TP522190) (Mus musculus) (UniProt Q61990). In words: pull-down. The note with it: pull-down: streptavidin beads blocked with 1 mg/mL yeast tRNA, 90 min 4 C, lysis buffer washes; 4 ug recombinant PCBP2; commercial protein; label: 5' biotin.
In series [4] the target is T1, SYNCRIP (hnRNPQ) endogenous (Mus musculus (hepatocytes)). In words: EMSA supershift. The conditions noted are these: EMSA: REMSA binding buffer (LightShift kit), 4 ug extract, 0.5 pmol biotin-RNA, 30 min room temperature, native 6% PAGE 0.5x TBE, protein in an extract, label: 5' biotin.
Series [5] deals with PCBP2 endogenous (Mus musculus (hepatocytes)) (UniProt Q61990). In words: EMSA supershift. The note with it: EMSA: REMSA binding buffer (LightShift kit), 4 ug extract, 0.5 pmol biotin-RNA, 30 min room temperature, native 6% PAGE 0.5x TBE, protein in an extract, label: 5' biotin.
Series [6] addresses GAPDH endogenous (Mus musculus (hepatocytes)) (UniProt P16858). In words: pull-down + immunoblot. The conditions noted are these: negative control; pull-down: streptavidin beads blocked with 1 mg/mL yeast tRNA, 90 min 4 C, lysis buffer washes; 4 ug recombinant PCBP2; protein in an extract; label: 5' biotin.

“AGGGACUUUCAGGGGCAGCUGUG [miR-365-2-5p WT]”: the results for the binding result in series [1] and in series [2] were “binds” and “no binding”, respectively.
In the same order, the values of “AGGGACUUUCAUUGGCAGCUGUG [miR-365-2-5p +CELL (printed as +hEXO in Table 1)]” are “binds” and “binds”.
In the case of “CCUGUUCUCCAUUACUUGGCGA [miR-26b-3p no-hEXO]”, in series [2], the binding result is “binds more weakly”.
For the sequence CCUGUUCUCCAUUACUUGGCUC [miR-26b-3p WT], the binding result in series [1] and in series [2] was “binds” throughout.
Turning to “CUCCUACCUGUUAGCAUGAUC [miR-155-3p no-CELL]”, the results for the binding result in series [3], in series [1] and in series [2] were “binds more weakly”, “binds” and “binds more weakly”, respectively.
As to “CUCCUACCUGUUAGCAUUAAC [miR-155-3p WT (Table 1: miR-155b-3p WT)]”, the binding result in series [4] (anti-SYNCRIP) is given as “binds”; in series [4] (shPCBP2 extract), “binds”; in series [5] (anti-PCBP2) it was “binds”; in series [5] (shSYNCRIP extract) it was “binds more weakly”; in series [1], “binds”; in series [6], “no binding”. Moreover, the binding result in series [2] is on record as “binds”.
“CUCCUACCUGUUAGCAUUAGU [miR-155-3p no-hEXO]”: the binding result in series [1] and in series [2] was “binds more weakly” in each case.
UGCUAUGCCAACAUAUUGCCAUC [miR-31-3p WT]: the binding result in series [2] is “no binding”.
Take “UGCUAUGCCAACAUAUUGGGCUG [miR-31-3p+hEXO]”: the binding result in series [1] and in series [2] was “binds” in each case.
Regarding “UGCUAUGCCAACAUAUUUGGCUG [miR-31-3p+hEXO no-CELL]”, the binding result in series [2] is “binds more weakly”.
